Results taken from patent US20080166295A1.
Results are given in words; binding and its absence hold for the method and conditions named. Some results given as binding are weak or reduced against the parent protein; the word gives no strength. Tags and fused reporters may be left off the sequences shown.

Legend:
MR IgA-Fc (human) = biological target: T1, MR IgA-Fc (human) (UniProt Q8WZ75); experiment: ELISA on various domains of MR
T1 sequence: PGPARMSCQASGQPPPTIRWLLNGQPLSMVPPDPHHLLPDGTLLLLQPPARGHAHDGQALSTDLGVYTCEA

MR ectodomain-Fc (human) = biological target: T2, MR ectodomain-Fc (human) (UniProt Q8WZ75); experiment: hybridoma screening ELISA
T2 sequence: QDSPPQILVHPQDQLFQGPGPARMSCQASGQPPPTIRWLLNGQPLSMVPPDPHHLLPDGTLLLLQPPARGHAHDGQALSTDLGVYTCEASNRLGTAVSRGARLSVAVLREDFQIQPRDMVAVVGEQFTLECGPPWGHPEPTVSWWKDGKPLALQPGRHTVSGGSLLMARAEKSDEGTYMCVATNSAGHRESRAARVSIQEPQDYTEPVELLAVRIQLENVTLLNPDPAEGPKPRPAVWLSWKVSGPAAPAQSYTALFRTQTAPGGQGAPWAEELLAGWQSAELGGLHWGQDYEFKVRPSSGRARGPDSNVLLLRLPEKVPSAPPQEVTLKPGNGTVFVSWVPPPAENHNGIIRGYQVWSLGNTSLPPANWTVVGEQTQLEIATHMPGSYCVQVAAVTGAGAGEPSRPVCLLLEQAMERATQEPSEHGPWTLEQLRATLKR

B1: MR7 antibody (antibody, V domains shown)
VH: QVKLQESGPELVKPGASVKISCKASGYSLTDYNLNWVKQNKGKSLEWIGVINPNYGTTSYNQKFKGKATLTVDQSSSTTYMQLNSLTSEDSAVYYCARGRDYFGYWGQGTTVTVSS
VL: QIVLTQSPALMSASPGEKVTMTCSASSSVSYMYWYQQKPRSSPKPWIYLTSNLASGVPARFSGSGSGTSYSLTISSMEAEDAATYYCQQWSSNPLTFGAGTKLELK
**Q.** Which results are given for B1?
**A.** binding (MR IgA-Fc (human)): binds; binding (MR ectodomain-Fc (human)): binds
